{"source": "PubChem BioAssay AID743121 (NCATS, 2013)", "assay": "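Knock-downs that sensitise breast cancer cells to camptothecin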 (primary screen)", "cell system": "MDA-MB-231 cells, a human breast cancer line", "reagent": "single siRNA against human genes, 20 nM siRNA (0.8 pmol per well)", "duration": "120 h (drug added 48 h after transfection, read 72 h later)", "treatment": "camptothecin 20 nM (about EC30) for 72 h; vehicle 0.1% DMSO in parallel plates", "read-out": "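Cell viability by ATP luminescence (CellTiter-Glo) as % of non-targeting siRNA wells, and the log2 ratio of viability without drug over viability with camptothecin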", "scale": "log2 vehicle/camptothecin viability: higher = stronger sensitisation to camptothecin; viability with camptothecin: higher = more viable cells", "call rule": "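Each gene scored by redundant siRNA activity (RSA) over its individual siRNA ratios; a gene is called active at p < 0.001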", "note": "In all, the deposit lists about 26,000 reagents; shown is a random part of them. 167 of all reagents (0.63%) were called active. 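Calls are per gene from RSA p-values that are not deposited; an individual active-marked siRNA can sensitise only weakly.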 The numbers tell different reagents against one gene apart. Further read-outs or replicates are left out here."}
{"Target gene":"CAD (GeneID 790)","reagent":1,"log2 vehicle/camptothecin viability":-0.179,"viability with camptothecin (% of control)":89.8,"Outcome":"inactive"}
{"Target gene":"CAD (GeneID 790)","reagent":2,"log2 vehicle/camptothecin viability":-0.289,"viability with camptothecin (% of control)":82.3,"Outcome":"inactive"}
{"Target gene":"CAD (GeneID 790)","reagent":3,"log2 vehicle/camptothecin viability":0.62,"viability with camptothecin (% of control)":44.4,"Outcome":"inactive"}
{"Target gene":"CAD (GeneID 790)","reagent":4,"log2 vehicle/camptothecin viability":-0.346,"viability with camptothecin (% of control)":102,"Outcome":"inactive"}
{"Target gene":"TGFB2 (GeneID 7042)","reagent":1,"log2 vehicle/camptothecin viability":0.249,"viability with camptothecin (% of control)":2.37,"Outcome":"inactive"}
{"Target gene":"TGFB2 (GeneID 7042)","reagent":2,"log2 vehicle/camptothecin viability":0.00603,"viability with camptothecin (% of control)":63.8,"Outcome":"inactive"}
{"Target gene":"TGFB2 (GeneID 7042)","reagent":3,"log2 vehicle/camptothecin viability":-0.707,"viability with camptothecin (% of control)":109,"Outcome":"inactive"}
{"Target gene":"IARS1 (GeneID 3376)","reagent":1,"log2 vehicle/camptothecin viability":-0.171,"viability with camptothecin (% of control)":98.1,"Outcome":"inactive"}
{"Target gene":"IARS1 (GeneID 3376)","reagent":2,"log2 vehicle/camptothecin viability":-0.331,"viability with camptothecin (% of control)":76.9,"Outcome":"inactive"}
{"Target gene":"IARS1 (GeneID 3376)","reagent":3,"log2 vehicle/camptothecin viability":-0.277,"viability with camptothecin (% of control)":98.5,"Outcome":"inactive"}
{"Target gene":"LRRC47 (GeneID 57470)","reagent":1,"log2 vehicle/camptothecin viability":0.29,"viability with camptothecin (% of control)":56.5,"Outcome":"inactive"}
{"Target gene":"LRRC47 (GeneID 57470)","reagent":2,"log2 vehicle/camptothecin viability":0.0856,"viability with camptothecin (% of control)":84,"Outcome":"inactive"}
{"Target gene":"LRRC47 (GeneID 57470)","reagent":3,"log2 vehicle/camptothecin viability":-0.146,"viability with camptothecin (% of control)":99.9,"Outcome":"inactive"}
{"Target gene":"LRRC47 (GeneID 57470)","reagent":4,"log2 vehicle/camptothecin viability":-0.454,"viability with camptothecin (% of control)":91,"Outcome":"inactive"}
{"Target gene":"LRRC4B (GeneID 94030)","reagent":1,"log2 vehicle/camptothecin viability":-0.328,"viability with camptothecin (% of control)":10.3,"Outcome":"inactive"}
{"Target gene":"LRRC4B (GeneID 94030)","reagent":2,"log2 vehicle/camptothecin viability":0.433,"viability with camptothecin (% of control)":43.4,"Outcome":"inactive"}
{"Target gene":"LRRC4B (GeneID 94030)","reagent":3,"log2 vehicle/camptothecin viability":-0.157,"viability with camptothecin (% of control)":115,"Outcome":"inactive"}
{"Target gene":"LRRC4B (GeneID 94030)","reagent":4,"log2 vehicle/camptothecin viability":-0.333,"viability with camptothecin (% of control)":65.9,"Outcome":"inactive"}
{"Target gene":"KIF27 (GeneID 55582)","reagent":1,"log2 vehicle/camptothecin viability":-0.125,"viability with camptothecin (% of control)":72.9,"Outcome":"inactive"}
{"Target gene":"KIF27 (GeneID 55582)","reagent":2,"log2 vehicle/camptothecin viability":-0.355,"viability with camptothecin (% of control)":96.2,"Outcome":"inactive"}
{"Target gene":"KIF27 (GeneID 55582)","reagent":3,"log2 vehicle/camptothecin viability":-0.189,"viability with camptothecin (% of control)":80.3,"Outcome":"inactive"}
{"Target gene":"KIF27 (GeneID 55582)","reagent":4,"log2 vehicle/camptothecin viability":-0.449,"viability with camptothecin (% of control)":54.8,"Outcome":"inactive"}
{"Target gene":"CISH (GeneID 1154)","reagent":1,"log2 vehicle/camptothecin viability":0.409,"viability with camptothecin (% of control)":62.5,"Outcome":"inactive"}
{"Target gene":"CISH (GeneID 1154)","reagent":2,"log2 vehicle/camptothecin viability":-0.0765,"viability with camptothecin (% of control)":48.1,"Outcome":"inactive"}
{"Target gene":"CISH (GeneID 1154)","reagent":3,"log2 vehicle/camptothecin viability":-0.409,"viability with camptothecin (% of control)":67.8,"Outcome":"inactive"}

Targets above whose gene name starts with I or i (3):
{"Target gene":"IARS1 (GeneID 3376)","reagent":1,"log2 vehicle/camptothecin viability":-0.171,"viability with camptothecin (% of control)":98.1,"Outcome":"inactive"}
{"Target gene":"IARS1 (GeneID 3376)","reagent":2,"log2 vehicle/camptothecin viability":-0.331,"viability with camptothecin (% of control)":76.9,"Outcome":"inactive"}
{"Target gene":"IARS1 (GeneID 3376)","reagent":3,"log2 vehicle/camptothecin viability":-0.277,"viability with camptothecin (% of control)":98.5,"Outcome":"inactive"}
